The results in this text go back to PubChem BioAssay AID328 (DTP/NCI, 2004).

The list is a part of this screen's results and no random one: it is rich in T/C values a quarter to a half above the control, in often repeated tests (any T/C) and in doses without a T/C. Other doses and runs of a compound stand elsewhere. T/C gives the treated animals as a percentage of the vehicle group. Some entries give survivors of the animals treated and no T/C: the source files T/C as zero there, which appears to mark a toxic dose or a test without result, not a measured value. Some survivor counts are full or nearly so, which does not show that the dose was tolerated: the source hardly ever lists a survival T/C far under the control, and the zero likely stands for such cases as well. Survivors were counted at the toxicity check, usually on the fifth day, unless a day is given; later deaths do not show. Schedules are NCI's codes, taken here to give the interval after Q, in days (D) or hours (H), and the number of doses after X. Some entries hold several experiments; their values stand side by side, smallest first. Some schedule codes hold Z or #, which are not explained here. For survival time, this PubChem deposit counts one and a half times the control or more as active, and values a quarter to a half above the control carry no call in these data; other NCI protocols may use other cut-offs. Some T/C values carry the count of animals alive at the toxicity check (mostly the fifth day); where none is given, no animal had died by that day.

The test system of the test is BDF1 mice, P388 leukemia ip, median survival T/C. The experiment in a line: NCI In Vivo Anticancer Drug Screen. Data for tumor model P388 Leukemia (intraperitoneal) in B6D2F1 (BDF1) mice. Conditions: T/C endpoint: median survival time, higher T/C = longer survival. The method, boiled down: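 Compound-treated tumour-bearing mice were compared with vehicle-treated controls. Survival was recorded, and the value is the treated-group measurement divided by the control-group measurement (T/C).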

[1] abbreviates: dose: 200.0 mg/kg/injection, schedule: Q04DX003 (ip), vehicle: saline with Tween-80.
The mark [2] stands for this setting: dose: 12.5 mg/kg/injection, schedule: Q01DX009 (ip), vehicle: Klucel (hydroxypropylcellulose) (HPC).
Setting [3] is: dose: 25.0 mg/kg/injection, schedule: Q01DX009 (ip), vehicle: Klucel (hydroxypropylcellulose) (HPC).

With `CCCCN1C(=O)C2CC=C3C=CN4C(C3C2C1=O)C1C(=O)N(CCCC)C(=O)C1C41CC(=O)N(CCCC)C1=O` (stereo not drawn), the survivor count (dose: 400.0 mg/kg/injection, schedule: Q04DX003 (ip), vehicle: Klucel (hydroxypropylcellulose) (HPC)) is listed as 6 of 6.
For the compound `O=CC(OC(=O)c1ccccc1)C(OC(=O)c1ccccc1)C(COC(c1ccccc1)(c1ccccc1)c1ccccc1)OC(=O)c1ccccc1` (stereo not drawn), the T/C (dose: 100.0 mg/kg/injection, schedule: Q01DX009 (ip), vehicle: saline with Tween-80) was 125 % of control. Under “dose: 400.0 mg/kg/injection, schedule: Q01DX009 (ip), vehicle: saline with Tween-80”, the survivor count is given as 1 of 3.
Take `COc1ccc(OC)c(/C=C(/C)[N+](=O)[O-])c1`: the T/C is 127 % of control (dose: 100.0 mg/kg/injection, schedule: Q04DX003 (ip), vehicle: saline with Tween-80) and 131 % of control [5 of 6 alive] under setting [1]. Also, the survivor count (dose: 400.0 mg/kg/injection, schedule: Q04DX003 (ip), vehicle: saline with Tween-80) was 4 of 6.
Consider `COC(C(=O)C(O)C(C)O)C1Cc2cc3cc(OC4CC(OC(C)=O)C(OC5CC(O)C(OC)C(C)O5)C(C)O4)cc(O)c3c(O)c2C(=O)C1OC1CC(OC2CC(OC3CC(C)(O)C(OC(=O)C(C)C)C(C)O3)C(O)C(C)O2)C(O)C(C)O1` (stereo not drawn), for which the T/C reads like this: (dose: 0.1 mg/kg/injection, schedule: Q01DX010 (ip), vehicle: saline) 145 % of control; (dose: 0.2 mg/kg/injection, schedule: Q01DX010 (ip), vehicle: saline) 142 % of control; (dose: 0.25 mg/kg/injection, schedule: Q01DX009 (ip), vehicle: other) 141 % of control; (dose: 0.5 mg/kg/injection, schedule: Q01DX009 (ip), vehicle: other) 145 % of control; (dose: 0.5 mg/kg/injection, schedule: Q01DX010 (ip), vehicle: saline) 145 % of control [5 of 6 alive]; (dose: 0.8 mg/kg/injection, schedule: Q01DX010 (ip), vehicle: saline) 138 % of control. Besides, the T/C is 130 % of control (dose: 1.0 mg/kg/injection, schedule: Q01DX001 (ip), vehicle: carboxymethylcellulose (CMC)); 129 % of control (dose: 1.0 mg/kg/injection, schedule: Q01DX001 (ip), vehicle: other); 125 and 133 % of control (dose: 1.0 mg/kg/injection, schedule: Q01DX001 (ip), vehicle: saline); 145 % of control (dose: 1.0 mg/kg/injection, schedule: Q01DX009 (ip), vehicle: other); 140 % of control (dose: 2.0 mg/kg/injection, schedule: Q01DX001 (ip), vehicle: carboxymethylcellulose (CMC)); 141 % of control (dose: 2.0 mg/kg/injection, schedule: Q01DX001 (ip), vehicle: other). Moreover, the T/C (dose: 2.0 mg/kg/injection, schedule: Q01DX001 (ip), vehicle: saline) is 133 % of control; the T/C (dose: 2.0 mg/kg/injection, schedule: Q## X008 (ip), vehicle: carboxymethylcellulose (CMC)) is 140 % of control; the T/C (dose: 4.0 mg/kg/injection, schedule: Q01DX001 (ip), vehicle: other) is 133 % of control [5 of 6 alive]; the T/C (dose: 8.0 mg/kg/injection, schedule: Q01DX001 (ip), vehicle: other) was 129 % of control; the T/C (dose: 100.0 micrograms/kg/injection, schedule: Q01DX010 (ip), vehicle: saline) is 140 % of control; the T/C (dose: 250.0 micrograms/kg/injection, schedule: Q01DX010 (ip), vehicle: saline) was 140 % of control. The survivor count is, setting by setting: (dose: 2.0 mg/kg/injection, schedule: Q01DX009 (ip), vehicle: saline) 1 of 6; (dose: 2.0 mg/kg/injection, schedule: Q01DX010 (ip), vehicle: saline) 5 of 6; (dose: 3.0 mg/kg/injection, schedule: Q01DX010 (ip), vehicle: saline) 0 of 6 and 2 of 6; (dose: 4.0 mg/kg/injection, schedule: Q01DX001 (ip), vehicle: saline) 5 of 6 and 6 of 6; (dose: 4.0 mg/kg/injection, schedule: Q01DX009 (ip), vehicle: saline) 3 of 6; (dose: 4.0 mg/kg/injection, schedule: Q01DX010 (ip), vehicle: saline) 2 of 6, 5 of 6, 6 of 6. The survivor count runs as follows: (dose: 4.0 mg/kg/injection, schedule: Q## X003 (ip), vehicle: carboxymethylcellulose (CMC)) 1 of 10; (dose: 6.0 mg/kg/injection, schedule: Q01DX010 (ip), vehicle: saline) 0 of 6; (dose: 6.4 mg/kg/injection, schedule: Q01DX010 (ip), vehicle: saline) 0 of 6; (dose: 8.0 mg/kg/injection, schedule: Q01DX001 (ip), vehicle: carboxymethylcellulose (CMC)) 8 of 10; (dose: 8.0 mg/kg/injection, schedule: Q01DX001 (ip), vehicle: saline) 0 of 6 and 4 of 6; (dose: 8.0 mg/kg/injection, schedule: Q01DX009 (ip), vehicle: saline) 1 of 6. Further, the survivor count (dose: 8.0 mg/kg/injection, schedule: Q## X003 (ip), vehicle: carboxymethylcellulose (CMC)) is recorded as 0 of 10; the survivor count (dose: 8.0 mg/kg/injection, schedule: Q## X008 (ip), vehicle: carboxymethylcellulose (CMC)) was 0 of 10; the survivor count (dose: 8.0 mg/kg/injection, schedule: Q## X024 (ip), vehicle: carboxymethylcellulose (CMC)) is 0 of 10; the survivor count (dose: 12.0 mg/kg/injection, schedule: Q01DX010 (ip), vehicle: saline) is reported as 0 of 6; the survivor count (dose: 16.0 mg/kg/injection, schedule: Q01DX001 (ip), vehicle: saline) is listed as 1 of 6.
Consider `O=CC(=O)c1ccc(O)cc1`, for which the T/C reads like this: (dose: 25.0 mg/kg/injection, schedule: Q01DX009 (ip), vehicle: saline) 131 % of control; (dose: 50.0 mg/kg/injection, schedule: Q01DX009 (ip), vehicle: saline) 136 % of control; (dose: 65.0 mg/kg/injection, schedule: Q01DX006 (ip), vehicle: saline) 126 % of control; (dose: 88.0 mg/kg/injection, schedule: Q04DX003 (ip), vehicle: saline with Tween-80) 127 % of control; (dose: 100.0 mg/kg/injection, schedule: Q01DX006 (ip), vehicle: saline) 144 % of control; (dose: 100.0 mg/kg/injection, schedule: Q01DX009 (ip), vehicle: saline) 147 % of control. Also, the T/C is, setting by setting: (dose: 100.0 mg/kg/injection, schedule: Q04DX003 (ip), vehicle: saline sonified) 127 % of control; (dose: 132.0 mg/kg/injection, schedule: Q04DX003 (ip), vehicle: saline sonified) 140 % of control; (dose: 132.0 mg/kg/injection, schedule: Q04DX003 (ip), vehicle: saline with Tween-80) 127 % of control; (dose: 200.0 mg/kg/injection, schedule: Q04DX003 (ip), vehicle: saline sonified) 127 and 136 % of control; under setting [1], 136 % of control. Further, the survivor count (dose: 300.0 mg/kg/injection, schedule: Q04DX003 (ip), vehicle: saline sonified) was 2 of 6.
On to `COC1C(O)=C2C(=O)OC(C)(O)/C=C/C=C\C=C/C=C/C(c3ccccc3)NC(=O)/C=C/C=C/C=C/C=C/C2(C)C1O` (stereo not drawn), for which the survivor count runs as follows: (dose: 3.12 mg/kg/injection, schedule: Q01DX009 (ip), vehicle: Klucel (hydroxypropylcellulose) (HPC)) 4 of 6; (dose: 6.25 mg/kg/injection, schedule: Q01DX009 (ip), vehicle: Klucel (hydroxypropylcellulose) (HPC)) 4 of 6; under setting [2], 5 of 6; (dose: 16.0 mg/kg/injection, schedule: Q01DX009 (ip), vehicle: Klucel (hydroxypropylcellulose) (HPC)) 0 of 6; under setting [3], 1 of 6; (dose: 35.0 mg/kg/injection, schedule: Q01DX009 (ip), vehicle: Klucel (hydroxypropylcellulose) (HPC)) 1 of 6. The survivor count reads like this: (dose: 50.0 mg/kg/injection, schedule: Q01DX009 (ip), vehicle: Klucel (hydroxypropylcellulose) (HPC)) 2 of 6; (dose: 100.0 mg/kg/injection, schedule: Q01DX009 (ip), vehicle: Klucel (hydroxypropylcellulose) (HPC)) 1 of 6. Moreover, the T/C runs as follows: under setting [2], 140 % of control; under setting [3], 140 % of control.
